Data: patent US20200165600

Molecular target: T1, IntI1 integron integrase (UniProt P62590)
T1 sequence (looked up, limits assumed): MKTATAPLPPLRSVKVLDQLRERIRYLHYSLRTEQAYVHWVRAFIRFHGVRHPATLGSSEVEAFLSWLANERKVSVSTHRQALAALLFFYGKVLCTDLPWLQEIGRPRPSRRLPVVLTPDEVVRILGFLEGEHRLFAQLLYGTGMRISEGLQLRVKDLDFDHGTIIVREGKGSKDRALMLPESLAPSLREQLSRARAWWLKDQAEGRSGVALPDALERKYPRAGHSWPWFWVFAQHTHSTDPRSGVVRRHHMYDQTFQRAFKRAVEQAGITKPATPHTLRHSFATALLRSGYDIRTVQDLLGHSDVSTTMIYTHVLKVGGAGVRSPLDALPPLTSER
Test: EMSA
Details: four shifted bands; poly[d(I-C)], Hepes pH 7.7, 60 mM KCl, 30 C; purified recombinant protein; protein details: MBP tag; label: 32P; single-stranded DNA

Sequence | binding result
GGATCCGTCTAACGCTTGAATTAAGCCGCGCCGCGAAGCGGCGTCGGCTTGAATGAATTGTTAGACGAATTCCACCCACCAATGCTCATGTTATCA [attCaadA7 bottom strand] | binds

Molecular target: T1, IntI1 integron integrase
Test: activity in cells
Details: attI1 x attC suicidal conjugation; recombines; protein in cells; folded or branched DNA

Sequence | activity on this sequence
GAATTCATGGCTAACTAGTAATACTCAGGGAATCGATCACGGTGATCCCTGATATGCTCTGTTAGCCATGGATCC [attCr12] | active
GAATTCTTTCTAACTCCGCCAACCCGGAGAAGCGTGGCCCACGCTCTCCGGTTGATATTGTTAGAAAGGATCC [attCr4] | active
GAATTCTTACACAACGGCCCATACTGAATCAGAAATCCAAACATTCGATTCATATTCGACGTTGTGTAAGGATCC [attCr11] | active
GAATTCAGGGTAACGCTACGCGCAGTGCCAAGCATCTATGATGCTGGCACTCGCCTCTTGTTACCCTGGATCC [attCr2] | active
GAATTCTCGGCTAACCGCTCAGACTATCGCACTACCTGGTTTCTAGGCGATATCTTCGGAGTTAGCCGAGGATCC [attCr7] | active
GAATTCACGACGAACTCAGACGACAGATATAACCTAAAAGTTCGGTATATCTTCGGGCCGTGTTCGTCGTGGATCC [attCr9] | active
GAATTCATTATAACGGAGGTTACCCATGGATTCGAGTTCCTCGAACCATGGTAAAGAGTGTTATAATGGATCC [attCr0] | active
GAATTCCTGCCTAACGTCGTCTGCAGCGTCACACTGTACGCATGTGGACGCTCAGTCAAATGTTAGGCAGGGATCC [attCr10] | active
GAATTCGCCTTAACAATACAGGCTATGTTATTTGGTCGGACCAAAAACATACCTAGTAGGTTAAGGCGGATCC [attCr5] | active
GAATTCCGTCTAACTCATCGCGCGTGAATAAACCTCTTGGAGGTTATTCACCGCAAAATGTTAGACGGGATCC [attCr1] | active
GAATTCGCCACTAACAGTTTCTACGATTTGAATGTCGATATCGCATCAAATCTAGCGGCTCGTTAGTGGCGGATCC [attCr13] | active
GAATTCTCTCTAACCTGCTACTCTATAGTACAGTAAGGTTTACTGACTATAAGTCGGGTGTTAGAGAGGATCC [attCr3] | active
GAATTCTAGGCTAACAGAACGGTCAATATGAGGGAGGCTGGATCCCCATATTACCTCGGTGTTAGCCTAGGATCC [attCr8] | active
GAATTCATCTTAACTGCTTACACCCGGGCAACCTTTCCTAAAGGTGCCCGGTGTGGCTTGTTAAGATGGATCC [attCr6] | active

Tags and fusion partners may be left off the protein sequences shown. For at least one entry, the source does not settle the construct or the ends of the probe.
